Assay results from PMC5601897, “The catalytic subunit of DNA polymerase δ inhibits γTuRC activity and regulates Golgi-derived microtubules” (Nature Communications, 2017).

The chains behind the UniProt entries cited, without tags or fusion partners. Where a name states a change or a piece, a line headed by the entry shows the natural chain unless it says otherwise.
UniProt P49005: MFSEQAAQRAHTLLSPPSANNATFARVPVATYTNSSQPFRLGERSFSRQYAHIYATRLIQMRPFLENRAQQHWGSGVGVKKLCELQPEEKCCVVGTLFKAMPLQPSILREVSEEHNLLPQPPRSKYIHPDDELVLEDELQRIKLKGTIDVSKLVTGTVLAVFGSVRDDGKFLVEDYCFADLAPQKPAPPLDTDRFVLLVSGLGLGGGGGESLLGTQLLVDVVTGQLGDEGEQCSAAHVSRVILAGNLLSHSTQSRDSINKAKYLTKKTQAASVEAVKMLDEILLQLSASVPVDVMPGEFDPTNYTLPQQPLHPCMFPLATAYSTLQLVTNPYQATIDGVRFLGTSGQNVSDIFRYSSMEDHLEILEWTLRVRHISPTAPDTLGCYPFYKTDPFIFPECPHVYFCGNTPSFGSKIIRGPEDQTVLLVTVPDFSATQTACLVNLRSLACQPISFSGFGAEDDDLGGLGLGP
UniProt P28340: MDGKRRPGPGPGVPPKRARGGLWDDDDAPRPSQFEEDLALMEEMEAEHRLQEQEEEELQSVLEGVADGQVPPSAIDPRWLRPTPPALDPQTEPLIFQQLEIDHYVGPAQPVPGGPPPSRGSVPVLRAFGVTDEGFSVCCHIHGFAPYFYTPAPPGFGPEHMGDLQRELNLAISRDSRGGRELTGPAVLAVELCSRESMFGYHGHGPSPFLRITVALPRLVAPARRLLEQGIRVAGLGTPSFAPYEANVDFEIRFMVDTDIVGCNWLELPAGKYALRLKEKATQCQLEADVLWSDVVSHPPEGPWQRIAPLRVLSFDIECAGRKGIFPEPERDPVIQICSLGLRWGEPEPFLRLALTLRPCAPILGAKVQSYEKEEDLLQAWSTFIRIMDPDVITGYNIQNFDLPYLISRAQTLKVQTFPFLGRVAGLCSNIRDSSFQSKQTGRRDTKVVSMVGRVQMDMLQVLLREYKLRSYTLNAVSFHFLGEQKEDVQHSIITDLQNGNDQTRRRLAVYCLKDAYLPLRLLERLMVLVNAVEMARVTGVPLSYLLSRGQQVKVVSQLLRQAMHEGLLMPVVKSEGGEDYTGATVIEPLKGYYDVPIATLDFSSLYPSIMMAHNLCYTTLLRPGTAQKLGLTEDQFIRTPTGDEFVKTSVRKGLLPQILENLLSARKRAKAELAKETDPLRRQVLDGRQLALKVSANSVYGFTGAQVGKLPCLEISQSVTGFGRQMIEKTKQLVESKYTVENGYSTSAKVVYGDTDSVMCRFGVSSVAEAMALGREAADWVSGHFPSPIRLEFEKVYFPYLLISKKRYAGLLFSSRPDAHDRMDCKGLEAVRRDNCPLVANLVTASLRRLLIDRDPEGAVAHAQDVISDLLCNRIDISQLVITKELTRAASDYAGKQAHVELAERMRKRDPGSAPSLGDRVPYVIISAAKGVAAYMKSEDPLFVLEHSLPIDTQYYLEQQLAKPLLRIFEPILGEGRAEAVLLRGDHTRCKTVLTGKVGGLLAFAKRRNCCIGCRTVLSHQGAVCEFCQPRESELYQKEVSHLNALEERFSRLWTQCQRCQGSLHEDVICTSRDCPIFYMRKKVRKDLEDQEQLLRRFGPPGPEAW

T1: FLAG-2 × TEV-SBP-CDK5RAP2(1–100) (UniProt Q96SN8)
T1 sequence: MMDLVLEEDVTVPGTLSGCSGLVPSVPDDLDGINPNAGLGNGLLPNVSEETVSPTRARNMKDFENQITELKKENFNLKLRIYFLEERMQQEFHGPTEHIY


How the values were obtained:
[1] = target: T1, FLAG-2 × TEV-SBP-CDK5RAP2(1–100); test: affinity purification with mass spectrometry; anti-FLAG immunoprecipitation of FLAG-2 × TEV-SBP-CDK5RAP2(1–100) from a 1:1 mixture of transfected and untransfected HEK293T cell extracts (lysis buffer with 0.5% IGEPAL CA-630, 0.2 mM GTP, 4 °C, 2 h), no streptavidin pulldown; elution with FLAG peptide, SDS-PAGE bands, trypsin, LC-MS, MASCOT
[2] = target: T1, FLAG-2 × TEV-SBP-CDK5RAP2(1–100); test: as above; remark: listed apart in the source

binding [1]	binding [2]	Molecule
no binding		PolD2, endogenous (from UniProt P49005 1-469)
binds		DNA polymerase δ catalytic subunit (PolD1), endogenous (from UniProt P28340 1-1107)
	no binding	PolD3, endogenous (protein, UniProt Q15054 1-466) MADQLYLENIDEFVTDQNKIVTYKWLSYTLGVHVNQAKQMLYDYVERKRKENSGAQLHVTYLVSGSLIQNGHSCHKVAVVREDKLEAVKSKLAVTASIHVYSIQKAMLKDSGPLFNTDYDILKSNLQNCSKFSAIQCAAAVPRAPAESSSSSKKFEQSHLHMSSETQANNELTTNGHGPPASKQVSQQPKGIMGMFASKAAAKTQETNKETKTEAKEVTNASAAGNKAPGKGNMMSNFFGKAAMNKFKVNLDSEQAVKEEKIVEQPTVSVTEPKLATPAGLKKSSKKAEPVKVLQKEKKRGKRVALSDDETKETENMRKKRRRIKLPESDSSEDEVFPDSPGAYEAESPSPPPPPSPPLEPVPKTEPEPPSVKSSSGENKRKRKRVLKSKTYLDGEGCIVTEKVYESESCTDSEEELNMKTSSVHRPPAMTVKKEPREERKGPKKGTAALGKANRQVSITGFFQRK
	no binding	PolD4, endogenous (protein, UniProt Q9HCU8 1-107) MGRKRLITDSYPVVKRREGPAGHSKGELAPELGEEPQPRDEEEAELELLRQFDLAWQYGPCTGITRLQRWCRAKQMGLEPPPEVWQVLKTHPGDPRFQCSLWHLYPL

Like-named read-outs stand apart in the source and are kept apart here. These are yes or no findings as the source states them, for the method shown. Binding seen in cells or lysates may run through a third protein. A yes stands for co-enrichment or nearness to the bait. Other partners may have been found. No binding means not detected with the bait. Tags and fused reporters may be left off the sequences shown.
